These are yes or no findings as the source states them, for the method shown. Binding seen in cells or lysates may run through a third protein. Here binding means that the protein was enriched with, or labelled near, the bait; the list need not be complete.
B1: Spondin-1 (protein, UniProt Q8VCC9 29-807, looked up)
chain: FSDETLDKVTKSEGYCSRILRAQGTRREGYTEFSLRVEGDPDFYKPGSSYRVTLSAAPPSYFRGFTLIALKENQEGDKEEDHAGTFQIIDEEETQFMSNCPVAVTESTPRRRTRIQVFWIAPPTGTGCVILKASIVQKRIIYFQDEGSLTKKLCEQDPTLDGVTDRPILDCCACGTAKYRLTFYGNWSEKTHPKDYPRRANHWSAIIGGSHSKNYVLWEYGGYASEGVKQVAELGSPVKMEEEIRQQSDEVLTVIKAKAQWPAWQPVNVRAAPSAEFSVDRTRHLMSFLTMMGPSPDWNVGLSAEDLCTKECGWVQKVVQDLIPWDAGTDSGVTYESPNKPTIPQEKIRPLTSLDHPQSPFYDPEGGSITQVARVVIERIARKGEQCNIVPDNVDDIVADLAPEEKDEDDTPETCIYSNWSPWSACSSSTCEKGKRMRQRMLKAQLDLSVPCPDTQDFQPCMGPGCSDEDGSTCTMSEWITWSPCSVSCGMGMRSRERYVKQFPEDGSVCMLPTEETEKCTVNEECSPSSCLVTEWGEWDDCSATCGMGMKKRHRMVKMSPADGSMCKAETSQAEKCMMPECHTIPCLLSPWSEWSDCSVTCGKGMRTRQRMLKSLAELGDCNEDLEQAEKCMLPECPIDCELSEWSQWSECNKSCGKGHMIRTRTIQMEPQFGGVPCPETVQRKKCRTRKCLRSPSVQKLRWREARESRRSEQLREESDGEQFPGCRMRPWTAWSECTKLCGGGIQERYMTVKKRFKSSQFTSCKDKKEIRACNVHPC
B2: Transforming growth factor-beta-induced protein ig-h3 (protein, UniProt P82198 24-683, looked up)
chain: GPAKSPYQLVLQHSRLRGRQHGPNVCAVQKVIGTNKKYFTNCKQWYQRKICGKSTVISYECCPGYEKVPGEKGCPAALPLSNLYETMGVVGSTTTQLYTDRTEKLRPEMEGPGSFTIFAPSNEAWSSLPAEVLDSLVSNVNIELLNALRYHMVDRRVLTDELKHGMTLTSMYQNSNIQIHHYPNGIVTVNCARLLKADHHATNGVVHLIDKVISTITNNIQQIIEIEDTFETLRAAVAASGLNTVLEGDGQFTLLAPTNEAFEKIPAETLNRILGDPEALRDLLNNHILKSAMCAEAIVAGMSMETLGGTTLEVGCSGDKLTINGKAVISNKDILATNGVIHFIDELLIPDSAKTLLELAGESDVSTAIDILKQAGLDTHLSGKEQLTFLAPLNSVFKDGVPRIDAQMKTLLLNHMVKEQLASKYLYSGQTLDTLGGKKLRVFVYRNSLCIENSCIAAHDKRGRFGTLFTMDRMLTPPMGTVMDVLKGDNRFSMLVAAIQSAGLMEILNREGVYTVFAPTNEAFQAMPPEELNKLLANAKELTNILKYHIGDEILVSGGIGALVRLKSLQGDKLEVSSKNNVVSVNKEPVAETDIMATNGVVYAINTVLQPPANRPQERGDELADSALEIFKQASAYSRAAQRSVRLAPVYQRLLERMKH
B3: Peroxidasin homolog (enzyme, UniProt Q3UQ28 24-1475, looked up)
chain: VVASKQGAGCPSRCLCFRTTVRCMHLLLEAVPAVAPQTSILDLRFNRIREIQPGAFRRLRSLNTLLLNNNQIKKIPNGAFEDLENLKYLYLYKNEIQSIDRQAFKGLASLEQLYLHFNQIETLDPESFQHLPKLERLFLHNNRITHLVPGTFSQLESMKRLRLDSNALHCDCEILWLADLLKTYAQSGNAQAAATCEYPRRIQGRSVATITPEELNCERPRITSEPQDADVTSGNTVYFTCRAEGNPKPEIIWLRNNNELSMKTDSRLNLLDDGTLMIQNTQEADEGVYQCMAKNVAGEAKTQEVTLRYLGSPARPTFVIQPQNTEVLVGESVTLECSATGHPLPQITWTRGDRTPLPIDPRVNITPSGGLYIQNVAQSDSGEYTCFASNSVDSIHATAFIIVQALPQFTVTPQSRVVIEGQTVDFQCAAKGHPQPVIAWTKGGSQLSVDRRHLVLSSGTLRISGVALHDQGQYECQAVNIIGSQKVVAHLTVQPRVTPVFASIPSDMTVEVGTNVQLPCSSQGEPEPAITWNKDGVQVTESGKFHISPEGFLTINDVGTADAGRYECVARNTIGYASVSMVLSVNVPDVSRNGDPYVATSIVEAIATVDRAINSTRTHLFDSRPRSPNDLLALFRYPRDPYTVGQARAGEIFERTLQLIQEHVQHGLMVDLNGTSYHYNDLVSPQYLSLIANLSGCTAHRRVNNCSDMCFHQKYRTHDGTCNNLQHPMWGASLTAFERLLKAVYENGFNTPRGINSQRQYNGHVLPMPRLVSTTLIGTEVITPDEQFTHMLMQWGQFLDHDLDSTVVALSQARFSDGQHCSSVCSNDPPCFSVMIPPNDPRVRSGARCMFFVRSSPVCGSGMTSLLMNSVYPREQINQLTSYIDASNVYGSTDHEARSIRDLASHRGLLRQGIVQRSGKPLLPFATGPPTECMRDENESPIPCFLAGDHRANEQLGLTSMHTLWFREHNRIAAELLKLNPHWDGDTVYHETRKIVGAEIQHITYRHWLPKILGEVGMKMLGEYRGYDPSVNAGIFNAFATAAFRFGHTLINPLLYRLDENFEPIPQGHVPLHKAFFSPFRIVNEGGIDPLLRGLFGVAGKMRIPSQLLNTELTERLFSMAHTVALDLAAINIQRGRDHGIPPYHDYRVYCNLSAAYTFEDLKNEIKSPVIREKLQRLYGSTLNIDLFPALMVEDLVPGSRLGPTLMCLLSTQFRRLRDGDRLWYENPGVFSPAQLTQLKQTSLARILCDNSDNITRVQQDVFRVAEFPHGYSSCEDIPRVDLRVWQDCCEDCRTRGQFNAFSYHFRGRRSLEFSYEDDKPTKRARWRKALSVKHGKHLSNATSATHEHLEGPATNDLKEFVLEMQKIITDLRKQINSLESRLSTTECVDDSGESHGGNTKWKKDPCTVCECKNGQITCFVEACQPAACPQPVKVEGACCPVCLKNTAEEKP
B4: Sushi-repeat-containing protein SRPX (protein, UniProt Q9R0M3 31-464, looked up)
chain: FPGSGDSPLEDDGVWYSHSLYKDTPWCSPIKVKYGDVYCRAPPGGYYKTALGTRCDIRCRKGYELHGSSQLICQSNKRWSDKVICKQKRCPTLTMPANGGFKCVDGAYFNSRCEYYCSPGYTLKGERTVTCMDNKAWSGRPASCVDLEPPRIKCPSVKERIAEPNKLTVRVSWESPEGRDTADGILTDVILKGLPPGSNFPEGDHKIEYTVYDRAENKGTCKFRVKVRVRRCGKLNAPENGYMKCSSDGDNYGATCEFSCIGGYELQGSPARVCQSNLAWSGTEPSCAAMNVNVGVRTAAALLDQFYEKRRLLIVSTPTARNLLYRLQLGMLQQAQCGLDLRHVTVVELVGVFPTLIGRIRAKIMPPALALQLRLLLRIPLYSFSMVVVDKHGMDKERYVSLVTPMALFNLIDTFPLRKEEMILQAEMGQTCNV
B5: SPARC-related modular calcium-binding protein 2 (protein, UniProt Q8CD91 22-447, looked up)
chain: QKFSALTFLRVDQDKDRDCSLDCPSSPQKPLCASDGRTFLSRCEFQRAKCKDPQLEIAHRGNCKDVSRCVAERKYTQEQARKEFQQVFIPECNDDGTYSQVQCHSYTGYCWCVTPNGRPISGTAVAHKTPRCPGSINEKVPQREGAGKADDAAAPALETQPQGDEEDIASRYPTLWTEQVKSRQNKTNKNSASSCDQEHQSALEEAKQPKNDNVVIPECAHGGLYKPVQCHPSTGYCWCVLVDTGRPIPGTSTRYEQPKCDNTARAHPAKARDLYKNRPLQGCPGAKKHEFLTSVLDALSTDMVHAVSDPSSSSGRLSEPDPSHTLEERVVHWYFKLLDKNSSGDIGKKEIKPFKRFLRKKSKPKKCVKKFVEYCDMNNDKSITVQELMGCLGVTREEGKANTRKRHTPRGNAESSSSNRQPRKQG
B6: Periostin (protein, UniProt Q62009 24-838, looked up)
chain: NSYYDKVLAHSRIRGRDQGPNVCALQQILGTKKKYFSSCKNWYQGAICGKKTTVLYECCPGYMRMEGMKGCPAVMPIDHVYGTLGIVGATTTQHYSDVSKLREEIEGKGSYTYFAPSNEAWENLDSDIRRGLENNVNVELLNALHSHMVNKRMLTKDLKHGMVIPSMYNNLGLFINHYPNGVVTVNCARVIHGNQIATNGVVHVIDRVLTQIGTSIQDFLEAEDDLSSFRAAAITSDLLESLGRDGHFTLFAPTNEAFEKLPRGVLERIMGDKVASEALMKYHILNTLQCSEAITGGAVFETMEGNTIEIGCEGDSISINGIKMVNKKDIVTKNGVIHLIDEVLIPDSAKQVIELAGKQQTTFTDLVAQLGLASSLKPDGEYTLLAPVNNAFSDDTLSMDQRLLKLILQNHILKVKVGLSDLYNGQILETIGGKQLRVFVYRTAICIENSCMVRGSKQGRNGAIHIFREIIQPAEKSLHDKLRQDKRFSIFLSLLEAADLKDLLTQPGDWTLFAPTNDAFKGMTSEERELLIGDKNALQNIILYHLTPGVYIGKGFEPGVTNILKTTQGSKIYLKGVNETLLVNELKSKESDIMTTNGVIHVVDKLLYPADIPVGNDQLLELLNKLIKYIQIKFVRGSTFKEIPMTVYTTKIITKVVEPKIKVIQGSLQPIIKTEGPAMTKIQIEGDPDFRLIKEGETVTEVIHGEPVIKKYTKIIDGVPVEITEKQTREERIITGPEIKYTRISTGGGETGETLQKFLQKEVSKVTKFIEGGDGHLFEDEEIKRLLQGDTPAKKIPANKRVQGPRRRSREGRSQ
B7: Olfactomedin-like protein 2B (protein, UniProt Q3V1G4 21-746, looked up)
chain: STTPPTGTSEPPDVQTVEPTEDDILQNEADNQENVLSQLLGDYDKVKAVSEGSDCQCKCVVRPLGRDACQRINQGASRKEDFYTVETITSGSSCKCACVAPPSAVNPCEGDFRLQKLREADSRDLKLSTIIDLLEGAFYGLDLLKLHSVTTKLVGRVDKLEEEVSKNLTKENEQIKEDVEEIRTELNKRGKENCSDNTLESMPDIRSALQRDAAAAYAHPEYEERFLQEETVSQQINSIELLRTQPLVPPAAMKPQRPLQRQVHLRGRLASKPTVIRGITYYKAKVSEEENDIEEQHDELFSGDSGVDLLIEDQLLRQEDLLTSATRRPATTRHTAAVTTDASIQAAASSSEPAQASASASSFVEPAPQASDRELLATPQTTTVFPEPTEVMPSTQVSPTTVAHTAVQPLPAMVPGDIFVEALPLVPLLPDTVGTDMPEEEGTAGQEATSAGPILSPEEEDDIRNVIGRCKDTLSTITGPTTQNTYGRNEGAWMKDPLAKDDRIYVTNYYYGNTLVEFRNLENFKQGRWSNSYKLPYSWIGTGHVVYNGAFYYNRAFTRNIIKYDLKQRYVAAWAMLHDVAYEEATPWRWQGHSDVDFAVDENGLWLIYPALDDEGFNQEVIVLSKLNAVDLSTQKETTWRTGLRRNFYGNCFVICGVLYAVDSYNQRNANISYAFDTHTNTQIVPRLLFENEYSYTTQIDYNPKDRLLYAWDNGHQVTYHVIFAY
B8: SPARC-related modular calcium-binding protein 1 (protein, UniProt Q8BLY1 26-463, looked up)
chain: HRTTGPRFLISDRDPPCNPHCPRTQPKPICASDGRSYESMCEYQRAKCRDPALAVVHRGRCKDAGQSKCRLERAQALEQAKKPQEAVFVPECGEDGSFTQVQCHTYTGYCWCVTPDGKPISGSSVQNKTPVCSGPVTDKPLSQGNSGRKVSFRFFLTLNSDDGSKPTPTMETQPVFDGDEITAPTLWIKHLVIKDSKLNNTNVRNSEKVHSCDQERQSALEEARQNPREGIVIPECAPGGLYKPVQCHQSTGYCWCVLVDTGRPLPGTSTRYVMPSCESDARAKSVEADDPFKDRELPGCPEGKKMEFITSLLDALTTDMVQAINSAAPTGGGRFSEPDPSHTLEERVAHWYFSQLDSNSSDDINKREMKPFKRYVKKKAKPKKCARRFTDYCDLNKDKVISLPELKGCLGVSKEGGSLGSFPQGKRAGTNPFIGRLV
B9: Secreted frizzled-related protein 1 (protein, UniProt Q8C4U3 32-314, looked up)
chain: SEYDYVSFQSDIGSYQSGRFYTKPPQCVDIPVDLRLCHNVGYKKMVLPNLLEHETMAEVKQQASSWVPLLNKNCHMGTQVFLCSLFAPVCLDRPIYPCRWLCEAVRDSCEPVMQFFGFYWPEMLKCDKFPEGDVCIAMTPPNTTEASKPQGTTVCPPCDNELKSEAIIEHLCASEFALRMKIKEVKKENGDKKIVPKKKKPLKLGPIKKKELKRLVLFLKNGADCPCHQLDNLSHNFLIMGRKVKSQYLLTAIHKWDKKNKEFKNFMKRMKNHECPTFQSVFK

Chains of the proteins cited; added tags and fusions are not shown. Residues count along the entry.
UniProt Q80YX1, residues 23-2110: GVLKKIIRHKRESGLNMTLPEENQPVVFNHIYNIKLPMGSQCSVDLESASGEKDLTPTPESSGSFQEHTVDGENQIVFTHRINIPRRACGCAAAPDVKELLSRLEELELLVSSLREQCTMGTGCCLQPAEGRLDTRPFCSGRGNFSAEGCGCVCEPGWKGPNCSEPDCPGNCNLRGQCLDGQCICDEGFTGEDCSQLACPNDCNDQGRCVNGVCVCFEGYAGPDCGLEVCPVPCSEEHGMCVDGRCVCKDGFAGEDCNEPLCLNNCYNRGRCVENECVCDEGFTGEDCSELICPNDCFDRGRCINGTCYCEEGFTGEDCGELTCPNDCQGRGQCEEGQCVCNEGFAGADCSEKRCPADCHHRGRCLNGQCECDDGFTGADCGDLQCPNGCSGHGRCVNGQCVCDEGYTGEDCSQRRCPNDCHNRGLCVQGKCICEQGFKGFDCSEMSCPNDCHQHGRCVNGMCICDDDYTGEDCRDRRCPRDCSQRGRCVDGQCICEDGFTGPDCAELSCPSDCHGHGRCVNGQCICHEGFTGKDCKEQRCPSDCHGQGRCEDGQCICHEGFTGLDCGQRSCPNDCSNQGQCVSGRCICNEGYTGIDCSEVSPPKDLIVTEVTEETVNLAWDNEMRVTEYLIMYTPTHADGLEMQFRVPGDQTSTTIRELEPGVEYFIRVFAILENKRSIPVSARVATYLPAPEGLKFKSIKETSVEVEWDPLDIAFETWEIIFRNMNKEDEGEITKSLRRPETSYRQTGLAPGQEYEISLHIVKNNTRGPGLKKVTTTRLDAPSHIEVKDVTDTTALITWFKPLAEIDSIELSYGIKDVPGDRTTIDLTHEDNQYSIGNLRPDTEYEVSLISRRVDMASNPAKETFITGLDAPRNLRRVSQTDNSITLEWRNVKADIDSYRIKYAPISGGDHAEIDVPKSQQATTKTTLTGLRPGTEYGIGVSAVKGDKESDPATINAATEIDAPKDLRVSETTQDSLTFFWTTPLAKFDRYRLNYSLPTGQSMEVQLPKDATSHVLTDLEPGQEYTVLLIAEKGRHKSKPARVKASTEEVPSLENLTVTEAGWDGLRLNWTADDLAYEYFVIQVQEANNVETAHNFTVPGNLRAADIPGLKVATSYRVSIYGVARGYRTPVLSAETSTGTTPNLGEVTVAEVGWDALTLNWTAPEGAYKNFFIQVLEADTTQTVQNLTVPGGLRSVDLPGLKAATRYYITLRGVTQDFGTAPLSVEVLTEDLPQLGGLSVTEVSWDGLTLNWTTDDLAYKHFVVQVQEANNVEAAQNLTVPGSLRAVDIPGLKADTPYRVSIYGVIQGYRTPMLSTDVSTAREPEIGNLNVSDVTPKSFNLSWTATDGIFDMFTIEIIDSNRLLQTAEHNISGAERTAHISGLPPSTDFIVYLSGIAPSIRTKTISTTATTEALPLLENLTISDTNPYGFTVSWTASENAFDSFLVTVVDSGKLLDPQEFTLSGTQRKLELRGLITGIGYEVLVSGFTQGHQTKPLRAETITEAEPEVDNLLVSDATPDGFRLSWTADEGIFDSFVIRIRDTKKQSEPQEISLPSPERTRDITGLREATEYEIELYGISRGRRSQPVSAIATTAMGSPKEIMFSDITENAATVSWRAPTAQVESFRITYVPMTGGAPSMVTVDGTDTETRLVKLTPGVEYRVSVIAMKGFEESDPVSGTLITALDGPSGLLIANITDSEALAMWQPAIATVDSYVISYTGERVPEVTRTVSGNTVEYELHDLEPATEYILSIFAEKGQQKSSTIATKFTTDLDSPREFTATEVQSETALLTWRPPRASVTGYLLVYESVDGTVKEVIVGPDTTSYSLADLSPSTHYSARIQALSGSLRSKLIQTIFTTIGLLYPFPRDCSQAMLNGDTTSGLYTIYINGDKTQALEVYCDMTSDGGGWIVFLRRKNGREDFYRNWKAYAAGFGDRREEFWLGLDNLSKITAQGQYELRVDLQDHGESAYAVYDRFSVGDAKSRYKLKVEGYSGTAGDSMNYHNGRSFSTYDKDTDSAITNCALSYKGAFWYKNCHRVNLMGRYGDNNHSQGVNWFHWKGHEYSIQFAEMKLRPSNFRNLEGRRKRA

Target: murine strep-tagged TNC (mTNC) (mouse) (UniProt Q80YX1)
Assay: co-purification with recombinant mTNC, 1 M NaCl eluate, mass spectrometry

binding | Binder
binds | B1
binds | B2
binds | B3
binds | B4
binds | B5
binds | B6
binds | B7
binds | B8
binds | B9
